4 molecules from doi:10.1101/2020.12.17.422596 can be followed below.

By UniProt entry, the sequences of proteins in these tests, tags left out.
UniProt Q92609: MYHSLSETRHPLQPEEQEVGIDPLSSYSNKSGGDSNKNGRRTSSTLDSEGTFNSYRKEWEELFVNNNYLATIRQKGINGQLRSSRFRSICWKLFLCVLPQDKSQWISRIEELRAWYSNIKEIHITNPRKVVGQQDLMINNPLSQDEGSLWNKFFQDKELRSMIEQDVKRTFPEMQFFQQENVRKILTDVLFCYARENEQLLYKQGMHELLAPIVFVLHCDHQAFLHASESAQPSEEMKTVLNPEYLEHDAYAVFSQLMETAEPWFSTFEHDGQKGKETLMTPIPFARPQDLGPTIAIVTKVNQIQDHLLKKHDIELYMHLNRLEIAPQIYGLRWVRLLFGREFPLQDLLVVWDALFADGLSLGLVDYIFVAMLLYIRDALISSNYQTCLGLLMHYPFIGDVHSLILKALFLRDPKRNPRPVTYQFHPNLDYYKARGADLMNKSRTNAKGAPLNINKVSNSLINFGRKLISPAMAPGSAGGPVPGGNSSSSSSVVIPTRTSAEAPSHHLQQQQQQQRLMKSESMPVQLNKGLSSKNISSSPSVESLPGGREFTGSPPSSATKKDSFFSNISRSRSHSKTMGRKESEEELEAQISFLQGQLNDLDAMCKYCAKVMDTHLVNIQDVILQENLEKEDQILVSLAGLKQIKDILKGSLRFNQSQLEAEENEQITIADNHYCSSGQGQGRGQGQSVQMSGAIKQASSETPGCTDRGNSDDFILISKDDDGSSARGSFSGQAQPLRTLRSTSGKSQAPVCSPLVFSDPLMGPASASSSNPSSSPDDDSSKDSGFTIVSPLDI

No constants are given. Whether binding was seen depends on the method and setting. Binding seen in cells or lysates may run through a third protein. Here binding means that the protein was enriched with, or labelled near, the bait; the list need not be complete. For some of these results: Where a sequence is shown, tags or fusion partners need not be part of it.

Test in all cases: proximity labelling
Test [1] has as its target T1, Myc-APEX2-Atg4A (human) (UniProt Q8WYN0).
T1 sequence: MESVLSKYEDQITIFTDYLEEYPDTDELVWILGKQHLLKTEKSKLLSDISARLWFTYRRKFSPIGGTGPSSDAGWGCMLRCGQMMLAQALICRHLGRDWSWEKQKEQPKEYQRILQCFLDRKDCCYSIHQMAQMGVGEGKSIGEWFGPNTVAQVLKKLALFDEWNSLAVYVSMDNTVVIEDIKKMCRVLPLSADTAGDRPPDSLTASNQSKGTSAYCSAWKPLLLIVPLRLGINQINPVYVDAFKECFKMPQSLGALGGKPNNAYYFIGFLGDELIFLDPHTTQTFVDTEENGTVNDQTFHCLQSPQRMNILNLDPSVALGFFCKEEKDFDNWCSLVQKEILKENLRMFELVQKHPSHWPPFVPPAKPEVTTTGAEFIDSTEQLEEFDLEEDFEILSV

Test [2] deals with T2, Myc-APEX2-Atg4B (human) (UniProt Q9Y4P1).
T2 sequence: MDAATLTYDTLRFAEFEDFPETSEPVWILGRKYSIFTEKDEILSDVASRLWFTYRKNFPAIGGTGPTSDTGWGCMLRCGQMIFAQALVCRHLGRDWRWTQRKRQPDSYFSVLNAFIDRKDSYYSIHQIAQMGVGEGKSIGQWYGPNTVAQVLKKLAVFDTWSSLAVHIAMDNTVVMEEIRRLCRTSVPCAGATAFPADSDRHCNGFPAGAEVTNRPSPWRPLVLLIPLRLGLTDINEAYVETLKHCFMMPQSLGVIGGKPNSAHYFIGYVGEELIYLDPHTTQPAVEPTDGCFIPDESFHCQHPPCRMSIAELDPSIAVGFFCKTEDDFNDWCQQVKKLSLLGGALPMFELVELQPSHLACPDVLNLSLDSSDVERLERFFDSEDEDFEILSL

For test [3], the target named is Myc-APEX2-Atg4D (human) (UniProt Q86TL0).

For the molecule TBC1D5 (from UniProt Q92609 1-795), the binding entry in test [1] and in test [2] was “binds” in each case.

B1: FYCO1 (protein, UniProt Q9BQS8 1-1478)
chain: MASTNAESQLQRIIRDLQDAVTELSKEFQEAGEPITDDSTSLHKFSYKLEYLLQFDQKEKATLLGNKKDYWDYFCACLAKVKGANDGIRFVKSISELRTSLGKGRAFIRYSLVHQRLADTLQQCFMNTKVTSDWYYARSPFLQPKLSSDIVGQLYELTEVQFDLASRGFDLDAAWPTFARRTLTTGSSAYLWKPPSRSSSMSSLVSSYLQTQEMVSNFDLNSPLNNEALEGFDEMRLELDQLEVREKQLRERMQQLDRENQELRAAVSQQGEQLQTERERGRTAAEDNVRLTCLVAELQKQWEVTQATQNTVKELQTCLQGLELGAAEKEEDYHTALRRLESMLQPLAQELEATRDSLDKKNQHLASFPGWLAMAQQKADTASDTKGRQEPIPSDAAQEMQELGEKLQALERERTKVEEVNRQQSAQLEQLVKELQLKEDARASLERLVKEMAPLQEELSGKGQEADQLWRRLQELLAHTSSWEEELAELRREKKQQQEEKELLEQEVRSLTRQLQFLETQLAQVSQHVSDLEEQKKQLIQDKDHLSQQVGMLERLAGPPGPELPVAGEKNEALVPVNSSLQEAWGKPEEEQRGLQEAQLDDTKVQEGSQEEELRQANRELEKELQNVVGRNQLLEGKLQALQADYQALQQRESAIQGSLASLEAEQASIRHLGDQMEASLLAVRKAKEAMKAQMAEKEAILQSKEGECQQLREEVEQCQQLAEARHRELRALESQCQQQTQLIEVLTAEKGQQGVGPPTDNEARELAAQLALSQAQLEVHQGEVQRLQAQVVDLQAKMRAALDDQDKVQSQLSMAEAVLREHKTLVQQLKEQNEALNRAHVQELLQCSEREGALQEERADEAQQREEELRALQEELSQAKCSSEEAQLEHAELQEQLHRANTDTAELGIQVCALTVEKERVEEALACAVQELQDAKEAASREREGLERQVAGLQQEKESLQEKLKAAKAAAGSLPGLQAQLAQAEQRAQSLQEAAHQELNTLKFQLSAEIMDYQSRLKNAGEECKSLRGQLEEQGRQLQAAEEAVEKLKATQADMGEKLSCTSNHLAECQAAMLRKDKEGAALREDLERTQKELEKATTKIQEYYNKLCQEVTNRERNDQKMLADLDDLNRTKKYLEERLIELLRDKDALWQKSDALEFQQKLSAEERWLGDTEANHCLDCKREFSWMVRRHHCRICGRIFCYYCCNNYVLSKHGGKKERCCRACFQKLSEGPGSPDSSGSGTSQGEPSPALSPASPGPQATGGQGANTDYRPPDDAVFDIITDEELCQIQESGSSLPETPTETDSLDPNAAEQDTTSTSLTPEDTEDMPVGQDSEICLLKSGELMIKVPLTVDEIASFGEGSRELFVRSSTYSLIPITVAEAGLTISWVFSSDPKSISFSVVFQEAEDTPLDQCKVLIPTTRCNSHKENIQGQLKVRTPGIYMLIFDNTFSRFVSKKVFYHLTVDRPVIYDGSDFL
On to B1, for which, in test [1], the binding result was “binds”.

B2: WDR11 (protein, UniProt Q9BZH6 1-1224)
chain: MLPYTVNFKVSARTLTGALNAHNKAAVDWGWQGLIAYGCHSLVVVIDSITAQTLQVLEKHKADVVKVKWARENYHHNIGSPYCLRLASADVNGKIIVWDVAAGVAQCEIQEHAKPIQDVQWLWNQDASRDLLLAIHPPNYIVLWNADTGTKLWKKSYADNILSFSFDPFDPSHLTLLTSEGIVFISDFSPSKPPSGPGKKVYISSPHSSPAHNKLATATGAKKALNKVKILITQEKPSAEFITLNDCLQLAYLPSKRNHMLLLYPREILILDLEVNQTVGVIAIERTGVPFLQVIPCFQRDGLFCLHENGCITLRVRRSYNNIFTTSNEEPDPDPVQELTYDLRSQCDAIRVTKTVRPFSMVCCPVNENAAALVVSDGRVMIWELKSAVCNRNSRNSSSGVSPLYSPVSFCGIPVGVLQNKLPDLSLDNMIGQSAIAGEEHPRGSILREVHLKFLLTGLLSGLPAPQFAIRMCPPLTTKNIKMYQPLLAVGTSNGSVLVYHLTSGLLHKELSIHSCEVKGIEWTSLTSFLSFATSTPNNMGLVRNELQLVDLPTGRSIAFRGERGNDESAIEMIKVSHLKQYLAVVFRDKPLELWDVRTCTLLREMSKNFPTITALEWSPSHNLKSLRKKQLATREAMARQTVVSDTELSIVESSVISLLQEAESKSELSQNISAREHFVFTDIDGQVYHLTVEGNSVKDSARIPPDGSMGSITCIAWKGDTLVLGDMDGNLNFWDLKGRVSRGIPTHRSWVRKIRFAPGKGNQKLIAMYNDGAEVWDTKEVQMVSSLRSGRNVTFRILDVDWCTSDKVILASDDGCIRVLEMSMKSACFRMDEQELTEPVWCPYLLVPRASLALKAFLLHQPWNGQYSLDISHVDYPENEEIKNLLQEQLNSLSNDIKKLLLDPEFTLLQRCLLVSRLYGDESELHFWTVAAHYLHSLSQEKSASTTAPKEAAPRDKLSNPLDICYDVLCENAYFQKFQLERVNLQEVKRSTYDHTRKCTDQLLLLGQTDRAVQLLLETSADNQHYYCDSLKACLVTTVTSSGPSQSTIKLVATNMIANGKLAEGVQLLCLIDKAADACRYLQTYGEWNRAAWLAKVRLNPEECADVLRRWVDHLCSPQVNQKSKALLVLLSLGCFFSVAETLHSMRYFDRAALFVEACLKYGAFEVTEDTEKLITAIYADYARSLKNLGFKQGAVLFASKAGAAGKDLLNELESPKEEPIEE
B2: the binding result in test [3] and in test [1] was “binds” each time.

B3: ARFIP2 (protein, UniProt P53365 1-341)
chain: MTDGILGKAATMEIPIHGNGEARQLPEDDGLEQDLQQVMVSGPNLNETSIVSGGYGGSGDGLIPTGSGRHPSHSTTPSGPGDEVARGIAGEKFDIVKKWGINTYKCTKQLLSERFGRGSRTVDLELELQIELLRETKRKYESVLQLGRALTAHLYSLLQTQHALGDAFADLSQKSPELQEEFGYNAETQKLLCKNGETLLGAVNFFVSSINTLVTKTMEDTLMTVKQYEAARLEYDAYRTDLEELSLGPRDAGTRGRLESAQATFQAHRDKYEKLRGDVAIKLKFLEENKIKVMHKQLLLFHNAVSAYFAGNQKQLEQTLQQFNIKLRPPGAEKPSWLEEQ
B3: the binding entry in test [1] and in test [2] was “binds” in each case.
